Source: ChEMBL document CHEMBL5543144, “Discovery of a Novel Potent Tetrazole Antifungal Candidate with High Selectivity and Broad Spectrum” (J Med Chem, 2024)
≈ marks a conversion by molar mass, not a printed value.

What was measured:
[1] = test system: Candida albicans; experiment: Antifungal activity in Candida albicans SC5314 assessed as inhibition of fungal growth incubated for 26 days by induction of resistance assay; type: functional; settings: SC5314, 624 h, time 26 day
[2] = test system: Candida albicans; experiment: Antifungal activity in Candida albicans SC5314 assessed as inhibition of fungal growth incubated for 6 days by induction of resistance assay; type: functional; settings: SC5314, 144 h, time 6 day

## OC(Cn1cncn1)(Cn1cncn1)c1ccc(F)cc1F [FLUCONAZOLE]
[1]
  MIC: 32 µg/mL (≈ 104 µM)
[2]
  MIC: 4 µg/mL (≈ 13.1 µM)
